# Library screen at single concentrations

Protein sequences, listed by entry. Tags and fused reporters are not part of them. Residues count along the entry.
UniProt P9WNZ1, whole entry: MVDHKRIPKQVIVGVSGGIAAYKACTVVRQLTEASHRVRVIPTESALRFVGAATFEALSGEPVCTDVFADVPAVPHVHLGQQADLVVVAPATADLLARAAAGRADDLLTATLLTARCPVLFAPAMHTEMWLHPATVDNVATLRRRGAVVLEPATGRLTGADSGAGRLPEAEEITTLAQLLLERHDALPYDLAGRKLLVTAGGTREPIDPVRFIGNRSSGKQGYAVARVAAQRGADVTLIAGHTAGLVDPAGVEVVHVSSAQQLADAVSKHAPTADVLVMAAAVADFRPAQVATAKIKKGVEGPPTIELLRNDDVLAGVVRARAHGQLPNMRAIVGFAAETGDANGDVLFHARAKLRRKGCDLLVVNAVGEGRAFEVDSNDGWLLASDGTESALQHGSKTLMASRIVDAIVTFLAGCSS
UniProt P9WFT3, whole entry: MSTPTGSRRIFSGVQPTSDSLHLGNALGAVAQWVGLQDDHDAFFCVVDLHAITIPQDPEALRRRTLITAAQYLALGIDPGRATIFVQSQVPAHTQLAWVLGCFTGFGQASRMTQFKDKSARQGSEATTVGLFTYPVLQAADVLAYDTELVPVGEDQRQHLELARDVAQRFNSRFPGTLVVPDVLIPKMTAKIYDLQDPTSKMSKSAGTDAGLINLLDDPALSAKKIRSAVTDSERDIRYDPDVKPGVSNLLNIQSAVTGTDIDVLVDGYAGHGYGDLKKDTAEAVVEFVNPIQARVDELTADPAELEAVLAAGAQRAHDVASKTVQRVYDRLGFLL
UniProt A4I591, 1-473: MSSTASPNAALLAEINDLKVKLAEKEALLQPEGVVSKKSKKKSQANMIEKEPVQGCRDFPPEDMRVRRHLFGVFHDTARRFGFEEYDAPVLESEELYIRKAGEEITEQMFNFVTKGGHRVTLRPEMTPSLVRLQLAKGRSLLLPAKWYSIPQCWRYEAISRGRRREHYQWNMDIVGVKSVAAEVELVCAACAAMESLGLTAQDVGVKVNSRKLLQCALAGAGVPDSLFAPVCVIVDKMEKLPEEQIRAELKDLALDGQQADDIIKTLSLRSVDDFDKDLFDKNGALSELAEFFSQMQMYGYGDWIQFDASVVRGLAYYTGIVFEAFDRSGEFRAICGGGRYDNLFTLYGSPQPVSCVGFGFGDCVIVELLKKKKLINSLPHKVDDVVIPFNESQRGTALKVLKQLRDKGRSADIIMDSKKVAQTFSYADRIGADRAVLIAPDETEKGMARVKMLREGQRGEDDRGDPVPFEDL

From ChEMBL document CHEMBL3988442, “University of Dundee, Small-Polar-MMV Screening Library” (2021).

CoaBC: 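Coenzyme A biosynthesis protein CoaBC, Mycobacterium tuberculosis (UniProt P9WNZ1). Enzyme assay of CoaBC with a phosphate dye (Biomol Green) read at 650 nm. Tested at 30 µM. Direction is inferred from only a few compounds that gave an IC50; most scored high, so higher reads as stronger inhibition. Most strong results did not repeat in a second test. Of about 67,000 compounds tested this way, about 40 (0.06%) reached 50% or more in at least one test.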
Toxoplasma: 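Assay of Toxoplasma gondii numbers, read through their beta-galactosidase reporter with a colour substrate. Compounds at 10 µM. Higher reads as fewer parasites (inferred from which compounds were picked for retests). Size under these conditions: about 67,000 compounds, about 260 of them at 50% or above in at least one test.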
Leishmania in macrophages: 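Cell assay of Leishmania donovani living inside macrophages; the read-out is not stated. Compounds at 30 µM. Direction is inferred from retests: higher values go with stronger inhibition. About 69,000 compounds were tested under these conditions; 1.5% (about 1,000) showed 50% or more at least once.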
MtTrpRS: 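Tryptophan-tRNA ligase, Mycobacterium tuberculosis (UniProt P9WFT3). Enzyme assay of tryptophanyl-tRNA synthetase; the read-out is not stated. Concentration: 10 µM. Direction is not recorded; retested compounds ran higher, which suggests that high means inhibition. Size under these conditions: about 65,000 compounds, about 64 of them at 50% or above in at least one test.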
LiHisRS: 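Enzyme assay of histidyl-tRNA synthetase; the read-out is not stated. Target: Histidine-tRNA ligase, Leishmania infantum (UniProt A4I591). Concentration: 30 µM. The record gives no direction; compounds that gave an IC50 in retests scored well above the rest, so higher reads as stronger inhibition. The assay is labelled LdHisRS but filed under L. infantum. Of about 69,000 compounds tested this way, about 410 (0.6%) reached 50% or more in at least one test.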

Values are the deposited “Percent Effect”, in %. The controls that fix the scale are not given in the record; negative values are as filed. Compounds were drawn at random from those tested, without regard to their results. A dash means the value is not listed here; it may have been measured.

{"smiles": "O=C(O)C(F)(F)F.O=C(O)C(F)(F)F.[H][C@@]12CCN(c3ncc(F)cn3)[C@]1([H])CC[C@@H](C(=O)NCc1cccnc1)O2", "Toxoplasma": 5.414, "Leishmania in macrophages": 56.7}
{"smiles": "Cl.FC(F)(F)c1nc(C2CCCNC2)no1", "stereo": "centres unmarked", "Toxoplasma": 32.51, "Leishmania in macrophages": 25.89}
{"smiles": "CN1CCC(CNC(=O)c2ccc(O)nc2)c2ccccc21", "stereo": "centres unmarked", "CoaBC": 13.49, "Toxoplasma": 10.77, "Leishmania in macrophages": -6.996, "MtTrpRS": -3.366, "LiHisRS": 20.69}
{"smiles": "CCn1ccnc1CN1CCCN(C(=O)c2ccnc(C)n2)CC1", "CoaBC": -0.5115, "Toxoplasma": 37.88, "Leishmania in macrophages": 7.913, "MtTrpRS": 11.44, "LiHisRS": 1.835}
{"smiles": "N#Cc1ccnc(N2CCN(CC(O)c3ccccc3Cl)CC2)c1", "stereo": "centres unmarked", "CoaBC": -7.298, "Toxoplasma": 3.133, "Leishmania in macrophages": 12.59, "MtTrpRS": -0.09234, "LiHisRS": 3.03}
{"smiles": "Cc1nc(CN2CCC3(CCN(c4cnn(C)c4)C3=O)C2)cs1", "stereo": "centres unmarked", "CoaBC": -1.11, "MtTrpRS": -5.94, "LiHisRS": 13.89}
{"smiles": "O=C(Cc1ccc(F)cc1F)NCC(=O)Nc1ccccn1", "CoaBC": -25, "Toxoplasma": 5.434, "Leishmania in macrophages": 11.94, "MtTrpRS": -2.994, "LiHisRS": 1.124}
{"smiles": "CC(C)CS(=O)(=O)N1CCC2(CN(c3cccc(F)c3)C(=O)CN2C)C1.O=C(O)C(F)(F)F", "stereo": "centres unmarked", "Toxoplasma": 13.94, "Leishmania in macrophages": -22.35}
{"smiles": "Cc1ccc(CN2CC(C(=O)Nc3ccccc3)C3(CCOCC3)C2)s1.O=C(O)C(F)(F)F", "stereo": "centres unmarked", "Toxoplasma": 2.137, "Leishmania in macrophages": 35.74}
{"smiles": "COc1ccccc1OC1CN(C(=O)C(c2ccc(F)cc2)N(C)C)C1", "stereo": "centres unmarked", "CoaBC": -18.47, "Toxoplasma": -2.645, "Leishmania in macrophages": 11.92, "MtTrpRS": -4.277, "LiHisRS": 19.4}
{"smiles": "[H][C@@]12CCCO[C@]1([H])[C@@H](N(C)Cc1cncnc1)CN2C(=O)c1ccco1", "Toxoplasma": 17.91, "Leishmania in macrophages": 17.01}
{"smiles": "CC(C)Nc1ccc2nc(C3CCN(C(C)C)CC3)nn2c1", "CoaBC": -32.51, "MtTrpRS": -3.002, "LiHisRS": 21.15}
{"smiles": "CN(C(=O)CCNC(=O)NC1CCCCC1)c1ccccc1", "CoaBC": 2.024, "Toxoplasma": -0.1508, "Leishmania in macrophages": 34.47, "MtTrpRS": 6.886, "LiHisRS": 22.86}
{"smiles": "Cn1cc(CN2CCCCC2c2ccc(-c3cnn(C)c3)nc2)cn1", "stereo": "centres unmarked", "CoaBC": -4.854, "Toxoplasma": 4.117, "Leishmania in macrophages": -4.867, "MtTrpRS": -3.735, "LiHisRS": 8.571}
{"smiles": "CCc1nccn1CCC(=O)N1CCN(c2ccccc2C)CC1C", "stereo": "centres unmarked", "CoaBC": 1.225, "Toxoplasma": -1.112, "Leishmania in macrophages": 9.723, "MtTrpRS": 5.802, "LiHisRS": 20}
{"smiles": "O=C(COc1ccccc1)N1C[C@@H](O)[C@H](N2CCCC2)C1", "CoaBC": -4.722, "MtTrpRS": 2.592, "LiHisRS": 8.333}

Once more, the final 2:

SMILES,CoaBC,Toxoplasma,Leishmania in macrophages,MtTrpRS,LiHisRS
CCc1nccn1CCC(=O)N1CCN(c2ccccc2C)CC1C (centres unmarked),1.225%,-1.112%,9.723%,5.802%,20%
O=C(COc1ccccc1)N1C[C@@H](O)[C@H](N2CCCC2)C1,-4.722%,-,-,2.592%,8.333%